The text below walks through data of paper PMC12040169 (PLOS Biology, 2025).

This is one part of the list.

The assay relates to T1, CTL2-GFP (C. trachomatis L2/434/Bu, GFP-expressing).
T1 construct: L2/434/Bu, GFP-expressing
Set-up: species or system HeLa; Intracellular C. trachomatis growth in HeLa cells, bulk GFP fluorescence relative to DMSO. To be noted: bulk GFP, single well; 28.5 h, 10 µM; inhibitor.
Take `C=CCn1c(-c2sc(NC(=O)CCc3ccco3)nc2C)n[nH]c1=S` [CBK295312]: the “% of control remaining” value was found to be 166.676%.
As for `Cn1c(=O)n(CC(=O)NCc2cccs2)c2cccnc21` [CBK283907], the figure is 104.123%; as for `c1coc(-c2cn3ccnc3c(NCCc3ccncc3)n2)c1` [CBK037333], 181.091%.
As for `CCCc1ccc(S(=O)(=O)Nc2cccc(C(=O)OCC)c2)cc1` [CBK034332], the figure is 112.339%; as for `Cc1ccc(S(=O)(=O)N(CC(O)CN2CCCCC2)c2ccccc2)cc1` (centres unmarked) [CBK263570], 119.783%; as for `COc1cc(CNC(=O)c2ccc(O)nc2)ccc1OCc1ccncc1` [CBK298297], 102.389%.
Turning to `COCCCNC(=O)c1cnn2c(C)c(Cc3ccccc3)c(C)nc12` [CBK162216], the “% of control remaining” value was found to be 109.209%.
Under `O=C(NCc1ccc(F)cc1)c1cc(Br)cnc1NCc1cccnc1` [CBK076405] stands 89.7497%; under `COc1ccc2[nH]cc(C(C(=O)O)N3CCCCC3)c2c1` (centres unmarked) [CBK286676], 145.562%.
Turning to `CC(C)c1nc(CCN(C)C(=O)NCc2cnc3cnccn23)no1` [CBK307666], the “% of control remaining” value is 102.542%.
Regarding `CC(C)Nc1nc2cc(Cl)c(Cl)cc2nc1OCCCN(C)C` [CBK115282], the “% of control remaining” value is 106.392%.
`CCCCOc1ccc(C(=O)OC(Cc2cccc3ccccc23)CN(CC)CC)cc1` (centres unmarked) [CBK011965C]: the “% of control remaining” value worked out at 106.572%.
As for `O=C(NCCN1CCOCC1)c1cc(Br)cnc1N1CCOCC1` [CBK076202], the figure is 119.203%; as for `CCN(Cc1ccccc1)C(=O)Nc1ccc2[nH]ccc2c1` [CBK155229], 103.701%.
Regarding `COCCNS(=O)(=O)c1ccc(C)cc1` [CBK002332], the “% of control remaining” value came out at 123.905%.
As for `COc1cc(CCN2CCC(c3nc(-c4ccccc4)c4ccccn34)CC2)cc(OC)c1OC` [CBK035278], the figure is 95.1428%.
Consider `O=C(O)C1CCCN(C(=O)COc2cc3oc(=O)cc(-c4ccccc4)c3cc2Cl)C1` (centres unmarked) [CBK286753], for which the “% of control remaining” value is 114.447%.
As for `Fc1ccc2[nH]c3c(c2c1)CCN1C(c2cccnc2)N2CCC31CC2` (centres unmarked) [CBK284436], the figure is 134.804%; as for `CCc1ccc(C(O)CNC2CCN(Cc3cscn3)CC2)cc1` (centres unmarked) [CBK304733], 135.146%; as for `CC(C)NCC(O)c1c2c(cc3c1CCC3)CCC2` (centres unmarked) [CBK012972F], 127.334%.
As for `O=C(O)/C=C/C(=O)N1N=C(c2ccc(F)cc2)CC12C(=O)Nc1ccccc12` (centres unmarked) [CBK286747], the figure is 107.726%; as for `COc1ccc(N2CCN(c3nc(N4CCOCC4)nc(N4CCOCC4)n3)CC2)cc1` [CBK264166], 96.6716%.
As for `COc1ccc(CCN(Cc2ccc(Cl)c(Cl)c2)C(=O)NCCCSC)cc1OC` [CBK158758], the figure is 90.5921%.
For the molecule `O=C(Nc1ccccc1C(=O)N1CCN(Cc2ccccc2)CC1)c1ccc(F)cc1` [CBK264948], the “% of control remaining” value is given as 100%.
Under `Nc1ncc(-c2cccc(O)c2)nc1-c1ccc(C(=O)NCCO)cc1` [CBK064143] stands 141.575%.
As for `O=c1c(N2CCNCC2)nccn1CCOc1cccc(Cl)c1Cl` [CBK013463], the “% of control remaining” value is reported as 114.938%.
As to `Cc1cccn2cc(COC(=O)c3ccc(F)cc3N)nc12` [CBK298310], the “% of control remaining” value is on record as 188.995%.
As for `O=C(Cn1c(-c2ccc(F)cc2)cc2cccnc21)N1CCCC1` [CBK285384], the figure is 84.9907%.
Take `O=c1n(-c2ccc3c(c2)OCO3)ccn1S(=O)(=O)c1ccc2c(c1)OCCO2` [CBK106636]: the “% of control remaining” value was determined as 100%.
With `Cc1ccc(C)n1NC(=O)c1ccccc1[N+](=O)[O-]` [CBK266151], the “% of control remaining” value stood at 120.42%.
`N#Cc1cccc(S(=O)(=O)Nc2cccc3[nH]ccc23)c1` [CBK155771]: the “% of control remaining” value came out at 130.727%.
Under `CCc1nccn1CCC(=O)NC1CCCN(Cc2ccccc2F)C1` (centres unmarked) [CBK306652] stands 119.263%; under `CCNC(=O)c1ccc(-c2ccc(S(C)(=O)=O)cc2)nc1` [CBK158882], 106.893%.
As for `CC(NC(=O)N1CCNC(=O)C1)c1ccccc1` (centres unmarked) [CBK155877], the figure is 102.713%; as for `CN(Cc1ccccc1)C(=O)[C@H]1C[C@@H](O)[C@H](O)[C@@H]2N=C(Nc3ccc(Cl)cc3)S[C@@H]21` [CBK288949], 113.733%; as for `COc1cccc(NC(=O)CN(c2ccccc2)S(=O)(=O)c2ccc(Cl)cc2)c1` [CBK265366], 101.244%.
As to `c1cc2c3c(ccc(CSCCc4ccncc4)c3c1)CC2` [CBK261074G], the “% of control remaining” value turned out to be 85.1807%.
On to `N#Cc1ccc(Sc2cccc(F)c2)c(F)c1` [CBK002909], for which the “% of control remaining” value was determined as 107.316%.
Under `Fc1ccc(Nc2cncc(-c3cccs3)n2)cc1Cl` [CBK065813] stands 98.7464%.
Under `CCOC(=O)c1cnn(C2CCCN(Cc3cn(C)nc3C)C2)c1` (centres unmarked) [CBK304044] stands 135.8%.
As for `O=C(Nc1nc(OCC(F)(F)F)cnc1-c1ccc(Cl)cc1Cl)c1cc2ccccc2s1` [CBK145358], the figure is 77.6795%; as for `CC(C)c1ccc(S(=O)(=O)Nc2ccc3[nH]c(C(F)(F)F)nc3c2)cc1` [CBK044470], 68.6746%.
As for `O=C(NCc1ccc(Cl)cc1)c1cc(-c2ccc(F)cc2)nc2ccccc12` [CBK294451], the “% of control remaining” value was determined as 112.471%.
As for `Cc1ccc(S(=O)(=O)N2CCC(n3c(=O)[nH]c4ccccc43)CC2)cc1Cl` [CBK149691], the “% of control remaining” value is recorded as 103.894%.
Under `CC(NS(=O)(=O)c1ccccc1)C(=O)Nc1ccc(S(N)(=O)=O)cc1` (centres unmarked) [CBK266929] stands 155.778%.
With `CCN(CC)CCN1C(=O)c2oc3cc(C)c(C)cc3c(=O)c2C1c1cc(Br)c(O)c(OC)c1` (centres unmarked) [CBK266846], the “% of control remaining” value came to 162.172%.
As for `COc1ccc(S(=O)(=O)Nc2c(C(=O)O)sc3ncccc23)cc1OC` [CBK049979], the figure is 141.702%; as for `O=C(Nc1ccc(O)cc1C(=O)O)c1cccc(Br)c1` [CBK018511], 102.955%; as for `CC[C@H]1CN(S(=O)(=O)c2ccccc2)CC[C@H]1CC(=O)N(C)CC#N` [CBK289140], 125.626%.
Regarding `Cc1cnc2c(Cl)c(C(=O)N3CCC4(CCCNC4)C3)nn2c1` (centres unmarked) [CBK307472], the “% of control remaining” value turned out to be 107.47%.
On to `O=C1CCC(=O)N1CCOc1nccnc1N1CCN(Cc2ccccc2)CC1` [CBK084288], for which the “% of control remaining” value is 114.699%.
On to `COc1ccc([N+](=O)[O-])cc1CSc1nnc(COc2ccccc2C)n1C` [CBK265820], for which the “% of control remaining” value was 140.329%.
Under `O=C(O)c1ccc(CSc2nnc(-c3ccncc3)n2-c2ccc(Br)cc2)cc1` [CBK267559] stands 127.2%.
As for `O=[N+]([O-])c1ccc(CN2CCC(Oc3nccnc3OC3CCCCC3)CC2)cc1` [CBK082861T], the figure is 119.401%; as for `CC(C)C(=O)N1CCC(n2nc(-c3ccco3)ccc2=O)CC1` [CBK284244], 133.986%; as for `O=C(c1cccnc1)C1CCN(C(=O)CC2CC3CCC2C3)CC1` (centres unmarked) [CBK283530], 110.18%.
As for `CCOc1cc(OCC)cc(C(=O)N2CCC3(CC2)CC(=O)c2ccc(N)cc2O3)c1` [CBK168018], the figure is 132.478%.
Take `Cc1cccc(C(C)(C)C)c1OCCCCNCCN` [CBK265092G]: the “% of control remaining” value was 106.646%.
`COc1ccc(C(C)C)cc1-c1nc(NS(C)(=O)=O)cc2ccccc12` [CBK073779]: the “% of control remaining” value was 146.052%.
Take `O=C(CSc1ccc2nnc(-c3ccccc3)n2n1)NCC1CCCO1` (centres unmarked) [CBK287515]: the “% of control remaining” value came to 150.171%.
As for `CC(=O)N1CC[C@H]2NC(=O)CNC(=O)C3(CCCC[C@H]2C1)CCN(C(=O)COc1ccccc1)CC3` [CBK292101], the figure is 112.65%.
Under `COc1ccc(CN2CCN(C(=O)c3ccccc3F)CC2)cc1OCc1ccccc1` [CBK263479] stands 125.962%.
Under `CCOc1cccc(N2C(=O)c3cc(Br)ccc3NC2c2ccc(OC)c(OC)c2)c1` (centres unmarked) [CBK074502] stands 112.612%; under `COc1ccc(-c2nc(NC(=O)COc3ccc(C)c4c3CCC4)cnc2-c2ccc(F)cc2)cc1` [CBK036990], 171.582%; under `CCOc1ccc(NC(=O)C(C)O)c(NS(=O)(=O)c2ccc3ccccc3c2)c1` (centres unmarked) [CBK268309], 110.361%.
For `O=C(O)c1cc(NC(=O)c2ccco2)cc(NC(=O)c2ccco2)c1` [CBK263388], the “% of control remaining” value stood at 100%.
Under `CCCn1c(SCC(=O)N2CCN(C(=O)c3cccs3)CC2)n[nH]c1=O` [CBK297109] stands 112.897%.
Regarding `CC1(CCc2ccccc2)NC(=O)N(CC(=O)c2ccc(-c3ccccc3)cc2)C1=O` (centres unmarked) [CBK297114], the “% of control remaining” value is 101.206%.
For the molecule `CS(=O)(=O)NCC(=O)N1CCC2(CCCCOc3ccccc3C(=O)NCCNC2=O)CC1` [CBK292123], the “% of control remaining” value is reported as 103.779%.
Under `CCSc1nn(CC)c2oc3c(c2c1=S)CC(C)(C)OC3` [CBK021960] stands 179.445%; under `COc1ccnc(N2CCN(C(=O)c3cncnc3C)CC2)n1` [CBK304894], 128.067%; under `COc1ccc2c(c1)C(O)C(NCc1ccccc1)C2` (centres unmarked) [CBK015469C], 95.1497%.
On to `CN(C)c1ccc(CC(=O)Nc2cnc(-c3cccc(C(F)(F)F)c3)c(-c3cccnc3)n2)cc1` [CBK036901], for which the “% of control remaining” value stood at 147.308%.
Under `COc1ccccc1NC(=O)NC(=O)C1CCN(CCc2cccs2)CC1` [CBK034912] stands 159.921%.
Under `Cc1cc(CN(C)Cc2ccc3c(c2)n(C)c(=O)n3C)n[nH]1` [CBK281705] stands 82.3872%; under `N#Cc1c(NC(=O)COc2ccc(Cl)cc2)oc(-c2ccccc2)c1-c1ccccc1` [CBK262938], 109.06%.
Regarding `Cc1c(C(=O)N2CCC(c3cc4ncccc4[nH]3)CC2)cnn1C` [CBK283384], the “% of control remaining” value is 129.612%.
